# From PubChem BioAssay AID662 (National Center for Advancing Translational Sciences (NCATS), 2007)
# Where “and” joins values, the source holds several entries; their conditions need not be identical. Equal values may be shown once. This is one part of the list. Shown are side measurements of this screen, not its main read-out; they come without a call. Compounds called inactive in the main read-out are mostly missing here. Words in brackets tell the shape of the fitted curve; partial curves, single points and poor fits give uncertain potencies.
# Test: Cell signaling CRE-BLA (Fsk stim)
# Details: CHO CRE-bla reporter (cAMP response element driving beta-lactamase), forskolin EC10, beta-lactamase ratio; measured here: 460 nm blue channel
# Outline: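 Beta-lactamase reporter under a cAMP responsive element in CHO cells; compounds tested in titration series against EC10 NKH 477, 3 h at 37 °C. Read-out: CCF4 FRET ratio 460nm/530nm (excitation 405nm) giving %Activity, fitted to AC50.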
row,Structure (SMILES),AC50
1,CS(=O)(=O)Nc1cccc(-c2nc(Nc3ccccc3)c3ccccc3n2)c1,"0.794 µM [rising, full curve]"
2,CCCc1cc(C(=O)Nc2sc(C(C)=O)c(C)c2C(=O)OCC)no1,"0.631 µM [rising, full curve]"
3,Cc1nc(NCc2ccco2)nc2c1C(=O)CC(C)C2 (centres undefined),"15.8 µM [rising, partial curve]"
4,C=C(C)Cn1c(SCC#N)nc2ccccc2c1=O,"10 µM [rising, partial curve]"
5,O=C(NCc1cccs1)C(NS(=O)(=O)c1cccc2nsnc12)c1ccccc1 (centres undefined),"5.01 µM [rising, single point]"
6,CC(=O)CSc1ncnc2c1oc1ccccc12,"5.01 µM [rising, partial curve]"
7,CCOc1cc2[nH]c(=O)n(CC3CCC(C(=O)NC4CCCCC4)CC3)c(=O)c2cc1OCC (centres undefined),"0.0794 µM [falling, full curve, poor fit]"
8,COc1ccc(CCNC(=O)CSc2nc(N)c(C#N)c(-c3cccs3)c2C#N)cc1OC,"1.26 µM [rising, full curve]"
9,CCN(CC(=O)Nc1ccc2c(c1)OCCO2)Cc1cc(=O)oc2c(C)c(C)ccc12,"10 µM [rising, partial curve]"
10,Cc1cccc(NC(=O)c2sc3nc(-c4ccc(F)cc4)cn3c2C)n1,"3.16 µM [rising, partial curve]"
11,CC1CN(S(=O)(=O)c2ccc(NC(=O)CCN3C(=O)c4ccccc4C3=O)cc2)CC(C)O1 (centres undefined),"0.0316 µM [falling, full curve, poor fit]"
12,COc1ccc(NC(=O)CN2CCC(C(N)=O)CC2)cc1,"0.0794 µM [falling, partial curve, poor fit]"
13,COC(=O)C1=C(C)N(c2ccc(F)c(Cl)c2)C(=O)C1,"3.16 µM [falling, partial curve]"
14,Cc1cccc2cc3c(NC(=O)c4ccccn4)nn(C)c3nc12,"1.26 µM [rising, partial curve]"
15,N#Cc1c(N)n(CCCN2CCOCC2)c2nc3ccccc3nc12,"12.6 µM [rising, partial curve]"
16,COC(=O)[C@@]1(Cc2ccccc2)[C@H]2c3cc(C(=O)N4CCCC4)n(Cc4ccc(C(F)(F)F)nc4)c3C[C@H]2CN1C(=O)c1ccccc1,"20 µM [rising, single point]"
17,Cc1cc(=O)oc2n[nH]c(-c3ccccc3)c12,"10 µM [rising, partial curve]"
18,O=C(CSc1nnnn1-c1cccnc1)NCc1cccs1,"25.1 µM [falling, single point]"
19,COC(=O)c1c(-c2ccccc2)csc1NC(=O)c1ccco1,"2 µM [rising, partial curve]"
20,COc1cc(OC)c(C(=O)NC2CCCCCC2)cc1OC,"10 µM [rising, partial curve]"
21,CCOC(=O)c1cc2c(=O)n3ccccc3nc2n(CCCOC)c1=NC(C)=O,"12.6 µM [rising, partial curve]"
22,Cc1noc(C)c1-c1ccc2ncnc(N(C)C)c2c1,"6.31 µM [rising, partial curve]"
23,CCC(Sc1nc(=O)cc(N)n1-c1cccc(C)c1)C(=O)Nc1cc(C)on1 (centres undefined),"12.6 µM [falling, partial curve]"

# Another view of some results above:
row	Structure (SMILES)	AC50
2	CCCc1cc(C(=O)Nc2sc(C(C)=O)c(C)c2C(=O)OCC)no1	0.631 µM [rising, full curve]
3	Cc1nc(NCc2ccco2)nc2c1C(=O)CC(C)C2 (centres undefined)	15.8 µM [rising, partial curve]
4	C=C(C)Cn1c(SCC#N)nc2ccccc2c1=O	10 µM [rising, partial curve]
5	O=C(NCc1cccs1)C(NS(=O)(=O)c1cccc2nsnc12)c1ccccc1 (centres undefined)	5.01 µM [rising, single point]
6	CC(=O)CSc1ncnc2c1oc1ccccc12	5.01 µM [rising, partial curve]

# The list goes on.

row,Structure (SMILES),AC50
1,O=c1c(CCc2ccccc2)nc2cnc(N3CCOCC3)nc2n1-c1ccccc1,"12.6 µM [rising, partial curve]"
2,CC(C)=CC(=O)OCC(=O)Nc1nc(C)c(Cl)cc1Cl,"0.631 µM [falling, full curve]"
3,CCn1c(=O)c(C(=O)NCCCO)c(O)c2ccccc21,"10 µM [rising, partial curve]"
4,CC(=O)c1cc(C#N)c(SCCC(C)C)nc1C,"5.01 µM [falling, single point]"
5,COc1ccc(C(=O)NCC2OCCc3ccccc32)c(O)c1 (centres undefined),"0.00316 µM [falling, full curve, poor fit]"
6,CCOCCCNC(=O)c1cc2c(-c3ccc(Cl)cc3)nn(C)c2s1,"1 µM [rising, partial curve]"
7,Cc1ccnc2nc(C(=O)OCCOc3cccc(Br)c3)nn12,"15.8 µM [rising, single point]"
8,COC(=O)CNc1nc(-c2ccncc2)nc2ccccc12,"7.94 µM [rising, partial curve]"
9,COc1ccc(-c2noc(-c3ccccc3-c3ccccc3)n2)cc1OC,"6.31 µM [rising, partial curve]"
10,CC(C)N1C(=O)C2C(C(=O)NCc3ccccc3)C3C=CC2(O3)C1C(=O)NC(C)(C)C (centres undefined),"3.16 µM [falling, partial curve, poor fit]"
11,CCOCCc1nnc(NC(=O)c2cc(OC)c(OC)c(OC)c2)s1,"1.58 µM [rising, full curve]"
12,CCOC(=O)c1ccccc1N/C=C1\CCCC1=O,"12.6 µM [rising, single point]"
13,Cn1cc(C(=O)NCCN2CCN(c3ccccc3F)CC2)c2c3ccccc3n(C)c2c1=O,"25.1 µM [rising, single point]"
14,CCCCNC(=O)c1cc2c(=O)n3cccc(C)c3nc2n(Cc2ccccc2)c1=N,"3.98 µM [rising, partial curve]"
15,CCOC(=O)CC(=O)CSc1ccc2nnc(-c3cccc(F)c3)n2n1,"10 µM [rising, partial curve]"
16,COc1ccccc1OCc1ccc(C(=O)N2CCN3CCCC3C2)cc1 (centres undefined),"0.0794 µM [falling, full curve, poor fit]"
17,CSc1cccc(NC(=O)OC2CCCCCCCCCCC2)c1,"0.501 µM [falling, single point]"
18,Cc1cc(-c2nnco2)c(C)n1-c1ccccc1,"10 µM [rising, partial curve]"
19,CCOC(=O)N1CCC(NC(=O)CSCc2cnn(-c3ccccc3)c2-n2cccc2)CC1,"5.01 µM [rising, single point]"
20,Cn1c(=O)c2[nH]cnc2n(C)c1=O,"5.01 µM [rising, single point]"
21,O=C(Nc1cccs1)NC1CCCC1,"0.631 µM [falling, single point]"
22,COCCn1c(=O)c(C)nc2cnc(Oc3cccc(Cl)c3)nc21,"20 µM [rising, single point]"
23,COC(=O)c1ccc(C(c2c(N)n(CC(C)C)c(=O)[nH]c2=O)N2CCN(c3ccccc3)CC2)cc1 (centres undefined),"25.1 µM [rising, single point]"

row,Structure (SMILES),AC50
1,COC(=O)c1ccc(CSc2nc(-c3ccccc3)cs2)o1,"12.6 µM [rising, single point]"
2,Cc1cc(C)c(O)c(-c2cc(C(=O)Nc3ccc(S(=O)(=O)N4CCOCC4)cc3)[nH]n2)c1,"25.1 µM [falling, single point]"
3,COC(=O)c1cc(OC)c(OC)cc1NC(=O)c1cccnc1,"5.01 µM [rising, partial curve]"
4,C=CCN(CC=C)c1nc2ccccc2nc1C(C#N)C(=O)OCCOC (centres undefined),"10 µM [rising, partial curve]"
5,O=C(Oc1cccc(Br)c1)c1cccnc1,"25.1 µM [falling, single point]"
6,Cn1c(=O)c(-c2cc(F)cc(F)c2)nc2cnc(Oc3cccc(Cl)c3)nc21,"10 µM [rising, partial curve]"
7,Cc1ccsc1/C=N/n1cnc2sc(C)c(C)c2c1=O,"5.01 µM [falling, single point]"
8,Cc1noc(C)c1S(=O)(=O)Nc1ccc(C(=O)O)cc1,"12.6 µM [rising, single point]"
9,CCOC(=O)NC(=O)CSc1nnnn1-c1ccc(C)cc1,"0.316 µM [falling, full curve, poor fit]"
10,CC(NC(=O)c1cccnc1)C(c1cccs1)N1CCOCC1 (centres undefined),"1.58 µM [falling, partial curve]"
11,COC(=O)c1ccc(NC(=O)CSc2nncn2C)cc1,"3.98 µM [falling, single point]"
12,Cc1ccnc2c1NC(=O)c1cccnc1N2C1CC1,"15.8 µM [rising, single point]"
13,COC(=O)c1ccc(CSc2nc(C)nc3sc(C)c(C)c23)o1,"1.26 µM [rising, partial curve]"
14,COCCNC(=O)CSc1nc2cc(OC)c(OC)cc2c(=O)n1Cc1ccco1,"10 µM [rising, partial curve]"
15,Cc1cc(C)c(C#N)c(N2CCSCC2)n1,"12.6 µM [rising, single point]"
16,COc1cc(CC(=O)Nc2sccc2C(N)=O)cc(OC)c1OC,"12.6 µM [rising, single point]"
17,COCCCNS(=O)(=O)c1ccccc1,"0.00316 µM [falling, full curve, poor fit]"
18,O=c1c(-c2cc(F)cc(F)c2)nc2cncnc2n1C1CC1,"12.6 µM [rising, partial curve]"
19,CC1CC(C)CN(C(=O)COc2ccc(-c3nnco3)cc2)C1 (centres undefined),"0.0794 µM [falling, full curve]"
20,COc1ccc(CCNC[C@H](O)c2ccc(O)cc2)cc1OC,"25.1 µM [falling, partial curve]"
21,Cc1cc(NCCOCCO)n2ncc(-c3ccc(Cl)cc3)c2n1,"5.01 µM [rising, partial curve]"
22,CC(C)[C@H](CO)Nc1nc(Nc2cccc(Cl)c2)c2ncn(C(C)C)c2n1,"10 µM [falling, full curve] and 15.8 µM [falling, partial curve, poor fit]"
23,CC(C)CCNC(=O)CCS(=O)(=O)c1cccc2nonc12,"15.8 µM [falling, partial curve]"
